The list shows only some results of the screen, not a fair sample: it gathers tests that were run many times, whatever their T/C, doses with no T/C, and many T/C values between a quarter and a half above the control. Further doses and runs are listed elsewhere. T/C is the treated group as % of the vehicle group. Some entries give survivors of the animals treated and no T/C: the source holds a T/C of zero for them, seemingly a mark for toxic or unscored doses. Some survivor counts are full or nearly so, which does not show that the dose was tolerated: the source hardly ever lists a survival T/C far under the control, and the zero likely stands for such cases as well. Counts of survivors are from the toxicity check (mostly the fifth day) where no day follows; animals may have died later. Schedules are NCI's codes, read here as Q, the interval in days (D) or hours (H), X, the number of doses. Some entries hold several experiments; the values are given in rising order. Where survival is the endpoint, this PubChem deposit counts one and a half times the control or more as active, and values a quarter to a half above the control carry no call in these data; other NCI protocols may use other cut-offs.
Test system: CD2F1 mice, ip Colon 26 adenocarcinoma, median survival T/C
Experiment: NCI In Vivo Anticancer Drug Screen. Data for tumor model Colon 26 Adenocarcinoma (intraperitoneal) in CD2F1 (CDF1) mice
Conditions: T/C endpoint: median survival time, higher T/C = longer survival
Description: The antitumor activity of compounds was measured in mice bearing transplantable tumors. Survival or tumor size were measured and the results are expressed as the measurement made in the treated group (T) divided by the measurement made in the vehicle treated control group (C). The tumor model used in this assay is Colon 26 Adenocarcinoma (intraperitoneal) in CD2F1 (CDF1) mice

[1] = dose: 100.0 mg/kg/injection, schedule: Q04DX003 (ip), vehicle: saline with Tween-80
[2] = dose: 200.0 mg/kg/injection, schedule: Q04DX003 (ip), vehicle: saline with Tween-80
[3] = dose: 12.5 mg/kg/injection, schedule: Q04DX003 (ip), vehicle: saline
[4] = dose: 25.0 mg/kg/injection, schedule: Q04DX003 (ip), vehicle: saline
[5] = dose: 50.0 mg/kg/injection, schedule: Q04DX003 (ip), vehicle: saline
[6] = dose: 100.0 mg/kg/injection, schedule: Q04DX003 (ip), vehicle: saline
[7] = dose: 200.0 mg/kg/injection, schedule: Q04DX003 (ip), vehicle: saline
[8] = dose: 50.0 mg/kg/injection, schedule: Q04DX003 (ip), vehicle: saline with Tween-80
[9] = dose: 400.0 mg/kg/injection, schedule: Q04DX003 (ip), vehicle: saline with Tween-80
[10] = dose: 200.0 mg/kg/injection, schedule: Q04DX002 (ip), vehicle: Klucel (hydroxypropylcellulose) (HPC)
[11] = dose: 200.0 mg/kg/injection, schedule: Q04DX003 (ip), vehicle: Klucel (hydroxypropylcellulose) (HPC)
[12] = dose: 100.0 mg/kg/injection, schedule: Q04DX003 (ip), vehicle: Klucel (hydroxypropylcellulose) (HPC)

## [I][Hg][CH2]C1COC([CH2][Hg][I])CO1 (stereo not drawn)
[1]
  survivor count: 4 of 10
[2]
  survivor count: 0 of 10

## CC(=O)C1(O)Cc2c(O)c3c(c(O)c2C(OC2CC(N)C(O)C(C)O2)C1)C(=O)c1ccccc1C3=O (stereo not drawn)
dose: 3.7 mg/kg/injection, schedule: Q07DX002 (iv), vehicle: saline
  T/C: 139 % of control
dose: 6.0 mg/kg/injection, schedule: Q07DX002 (iv), vehicle: saline
  survivor count: 9 of 10
dose: 540.0 micrograms/kg/injection, schedule: Q04DX003 (ip), vehicle: water
  T/C: 125 % of control
dose: 1500.5 micrograms/kg/injection, schedule: Q04DX003 (ip), vehicle: water
  survivor count: 8 of 8

## Nc1ccc(Cl)cc1N
dose: 400.0 mg/kg/injection, schedule: Q04DX003 (ip), vehicle: saline + Tween-80 + alcohol
  survivor count: 10 of 10

## CO[C@@]12[C@H](COC(N)=O)C3=C(C(=O)C(C)=C(N)C3=O)N1C[C@@H]1N[C@@H]12
dose: 0.5 mg/kg/injection, schedule: Q01DX004 (ip), vehicle: saline
  survivor count: 0 of 8 on day 14
dose: 2.0 mg/kg/injection, schedule: Q01DX004 (ip), vehicle: saline
  survivor count: 4 of 8 on day 14

## CN(Cc1ccccc1)c1ccccn1
dose: 6.25 mg/kg/injection, schedule: Q04DX003 (ip), vehicle: saline
  T/C: 128 % of control
[3]
  T/C: 141 % of control
[4]
  survivor count: 10 of 10
[5]
  survivor count: 7 of 10
[6]
  survivor count: 6 of 10
[7]
  survivor count: 2 of 10

## Cc1ncc([N+](=O)[O-])n1CCSC(N)=O
[8]
  survivor count: 10 of 10
[9]
  survivor count: 10 of 10

## O=NN(CCCl)C(=O)NCCCl
dose: 2.0 mg/kg/injection, schedule: Q04DX003 (ip), vehicle: saline + alcohol
  T/C: 125 % of control
dose: 32.0 mg/kg/injection, schedule: Q04DX003 (ip), vehicle: saline + alcohol
  survivor count: 10 of 10

## Cc1c2ccncc2c(C)c2c1[nH]c1ccccc12
[3]
  T/C: 102, 123, 132, 149, 150 % of control
dose: 25.0 mg/kg/injection, schedule: Q04DX002 (ip), vehicle: Klucel (hydroxypropylcellulose) (HPC)
  T/C: 143 % of control
[4]
  T/C: 111, 117, 141, 151, 152 % of control
dose: 50.0 mg/kg/injection, schedule: Q04DX002 (ip), vehicle: saline
  T/C: 146 % of control
[8]
  T/C: 147 % of control
[5]
  T/C: 111, 135, 140, 146, 184 % of control
[6]
  T/C: 89, 141, 166, 178, 209 % of control
[10]
  survivor count: 10 of 10
[11]
  survivor count: 10 of 10
[7]
  T/C: 89, 92, 148 % of control
  survivor count: 10 of 10

## O=C(CCCN1CCC(O)(c2cccc(C(F)(F)F)c2)CC1)c1ccc(F)cc1
[12]
  survivor count: 5 of 10

## COCC1OC(OC2C3=C(C(C)C)CCC3(C)/C=C3\C(CCC3(O)COC)C(C)C2O)C(O)C2OC3OC12OC3(C)C1CO1 (stereo not drawn)
dose: 1.56 mg/kg/injection, schedule: Q04DX002 (ip), vehicle: Klucel (hydroxypropylcellulose) (HPC)
  survivor count: 10 of 10
dose: 3.12 mg/kg/injection, schedule: Q04DX002 (ip), vehicle: Klucel (hydroxypropylcellulose) (HPC)
  survivor count: 10 of 10

## O=Cc1ccc(C(Cl)(Cl)Cl)cc1
[1]
  T/C: 126 % of control
[2]
  T/C: 145 % of control
[9]
  survivor count: 5 of 10

## NCCc1ccc(O)c(O)c1
[3]
  survivor count: 6 of 10
[6]
  survivor count: 6 of 10
[7]
  survivor count: 8 of 10
dose: 400.0 mg/kg/injection, schedule: Q04DX003 (ip), vehicle: saline
  survivor count: 6 of 10

## O=P1(NCCCl)OCCCN1CCCl (stereo not drawn)
dose: 50.0 mg/kg/injection, schedule: Q04DX003 (ip), vehicle: water
  T/C: 129 % of control
dose: 100.0 mg/kg/injection, schedule: Q04DX003 (ip), vehicle: water
  T/C: 139 % of control

## CCC[CH2][Hg][Cl]
dose: 12.5 mg/kg/injection, schedule: Q04DX003 (ip), vehicle: Klucel (hydroxypropylcellulose) (HPC)
  survivor count: 8 of 10
dose: 25.0 mg/kg/injection, schedule: Q04DX003 (ip), vehicle: Klucel (hydroxypropylcellulose) (HPC)
  survivor count: 1 of 10
dose: 50.0 mg/kg/injection, schedule: Q04DX003 (ip), vehicle: Klucel (hydroxypropylcellulose) (HPC)
  survivor count: 0 of 10

## Nc1ccc(C(=O)O)c(O)c1
dose: 112.5 mg/kg/injection, schedule: Q04DX002 (ip), vehicle: saline with Tween-80
  survivor count: 10 of 10
dose: 225.0 mg/kg/injection, schedule: Q04DX002 (ip), vehicle: saline with Tween-80
  survivor count: 10 of 10
dose: 450.0 mg/kg/injection, schedule: Q04DX002 (ip), vehicle: saline with Tween-80
  survivor count: 10 of 10
dose: 900.0 mg/kg/injection, schedule: Q04DX002 (ip), vehicle: saline with Tween-80
  survivor count: 4 of 10
dose: 1800.0 mg/kg/injection, schedule: Q04DX002 (ip), vehicle: saline with Tween-80
  survivor count: 0 of 10

## COC(C(=O)C(O)C(C)O)C1CC2C=C3C=C(OC4CC(OC5CC(O)C(OC)C(C)O5)C(OC(C)=O)C(C)O4)C(C)C(=O)C3=C(O)C2=C(O)C1OC1CC(OC2CC(OC3CC(C)(O)C(O)C(C)O3)C(O)C(C)O2)C(O)C(C)O1 (stereo not drawn)
dose: 16.0 mg/kg/injection, schedule: Q04DX003 (ip), vehicle: saline with Tween-80
  survivor count: 10 of 10

## CC1OC(=O)C(C(C)C)NC(=O)C(C(C)C)OC(=O)C(C(C)C)NC(=O)C(C)OC(=O)C(C(C)C)NC(=O)C(C(C)C)OC(=O)C(C(C)C)NC(=O)C(C)OC(=O)C(C(C)C)NC(=O)C(C(C)C)OC(=O)C(C(C)C)NC1=O (stereo not drawn)
dose: 24.0 mg/kg/injection, schedule: Q04DX003 (ip), vehicle: Klucel (hydroxypropylcellulose) (HPC)
  survivor count: 3 of 10

## CN1C(=O)CC2(CCN(CCCC(=O)c3ccc(F)cc3)CC2)C1=O
[1]
  survivor count: 3 of 10

## CC1C(=O)CCC2(C)C1CCC1CC3CC12CCC3(O)CO (stereo not drawn)
dose: 200.0 mg/kg/injection, schedule: Q04DX002 (ip), vehicle: saline + alcohol
  survivor count: 10 of 10
dose: 400.0 mg/kg/injection, schedule: Q04DX002 (ip), vehicle: saline + alcohol
  survivor count: 9 of 10

## CC(=O)OCc1cc(=O)n(C)c2c3c4c(cc12)c(C)cc(=O)n4CO3
[12]
  T/C: 132 % of control

## COC1C(O)C(C)OC(OC2C(Oc3cccc4c(O)c5c(=O)oc6ccc(C)c7c(=O)oc(c34)c5c67)OC(C)C(O)C2O)C1O (stereo not drawn)
[10]
  survivor count: 0 of 10 and 6 of 10
[11]
  survivor count: 0 of 10

Reference: PubChem BioAssay AID210 (DTP/NCI, 2004)
